## Results of single-concentration screens

The values are deposited in ChEMBL (CHEMBL3988442, “University of Dundee, Small-Polar-MMV Screening Library” (2021)).

A: 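Growth of Mycobacterium tuberculosis over 3 days (7H9 medium with glucose and tyloxapol); the read-out is not stated. Tested at 50 µM. Higher reads as more growth inhibition (inferred: compounds with an IC50 in retests scored well above the rest). Size under these conditions: about 69,000 compounds, about 760 of them at 50% or above in at least one test.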
B: 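Phenotypic screen: M. tuberculosis growth, cholesterol and DPPC medium, 4 days; the read-out is not stated. Tested at 50 µM. The record gives no direction; compounds that gave an IC50 in retests scored well above the rest, so higher reads as more growth inhibition. Of about 69,000 compounds tested this way, about 370 (0.54%) reached 50% or more in at least one test.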

Each number is a percent effect as filed.
How 0% and 100% were set is not recorded. Most values in the screen are low, and negative values occur.
This is an unselected part of the compounds tested.
Two or more numbers in one place are separate tests of the same structure; such repeats can differ widely.

Compound | A | B
O=C(O)C(F)(F)F.O=C(O)C(F)(F)F.[H][C@@]12COC[C@]1(CN(C)C)CN(Cc1cc(C)on1)C2 | -5.291 | -13.48
CC(C)Sc1ccc(N2CCN(Cc3ccccn3)CC2)nn1 | 9.647 & -4.518 | 6.365
O=C(NCC(F)(F)F)C1CSCN1S(=O)(=O)c1ccc(F)cc1Cl (stereo not drawn) | 9.328 | -2.093
COc1ccccc1C(=O)N1CCOCC1c1c(C)n[nH]c1C (stereo not drawn) | -22.93 | -13.81
Cc1nn(C)c(Cl)c1C1CCCN1C(=O)c1cc(Cl)c[nH]1 (stereo not drawn) | 10.68 | 28.53
O=C(O)C(F)(F)F.O=C(O)C(F)(F)F.[H][C@@]12CN(CCOC)C[C@]1([H])[C@@H](OC)CCN2Cc1ccsc1 | -0.5945 | 20.54
CC(=O)N[C@H]1CCO[C@@H](c2cccc(NC(=O)c3ccc(=O)[nH]n3)c2)C1 | -12.14 | -38.05 & -26.11
Cc1ccc2cc(CNCCCN3CCOCC3)c(=O)[nH]c2c1C | 30.52 | -12.93
COCC1CN(c2ncc(F)cn2)Cc2cnn(C)c21.O=C(O)C(F)(F)F.O=C(O)C(F)(F)F (stereo not drawn) | 23.18 | 18.5
CN(C)Cc1nnc(C2CCN(c3ncccc3Cl)CC2)n1C1CC1 | -42.93 | -43.13
COc1cc(CNC(=O)c2c(C)noc2C)ccn1 | 12.43 | 6.472
Cn1cc(CN2CCCC23CCN(C(=O)c2ccsc2)CC3)cn1.O=C(O)C(F)(F)F | -34.66 | -31.8
CC(=O)N(Cc1ncc(C)o1)C1CCN(CCOc2ccccc2)C1 (stereo not drawn) | -25.04 | -39.15
O=C(NCC1CC1)N1CCN(Cc2ccc3c(c2)OCCO3)CC1 | 70.14 | 65.83
Cc1nccnc1N1CCC(Cc2ccccc2Cl)(C(=O)O)CC1 | 6.116 & 0.3083 | -12.73
COc1ccc(CN(C)Cc2ccnc(C3CCCO3)n2)cc1 (stereo not drawn) | -12.64 | -18.15 & -6.947
Cn1cc(CN2CCC(Cn3cc(-c4ccccc4)nn3)CC2)cn1 | 23.69 | -5.546 & -10.62
Cc1nn(C)c2ncc(NC(=O)N(C)Cc3cc(Cl)cn3C)cc12 | -13.98 | -8.677
CC(C)c1nc(CCn2cncn2)n(-c2ccc3c(c2)OCCO3)n1 | 5.939 & 5.946 | 22.62
CCS(=O)(=O)NCC(=O)Nc1cc(CC(C)(C)C)n[nH]1 | -8.246 | 5.104
O=C(C(CNCc1ccccc1O)c1ccccc1)N1CCOCC1 (stereo not drawn) | -7.98 | -16.24
CCN1CCN(C2CCN(CCOc3ccc(F)cc3)CC2)C1=O | 24.12 | -3.044
CCC(=O)NCC(CC)Oc1cccc(F)c1 (stereo not drawn) | -20.22 & 9.459 | -1.891
CCCS(=O)(=O)N1CCC2(CCN(Cc3cccc(F)c3)C2=O)C1 (stereo not drawn) | 18.53 | -7.385
Cc1cc(CNc2ccnn2C)ccc1-n1cncn1 | -6.276 | 10.23
COc1ccccc1CN1CC[C@]2(C[C@@H](OCC(=O)N(C)C)CO2)C1.O=C(O)C(F)(F)F | -17.19 | -11.07
CCC1(CO)CCCN(Cc2nccn2Cc2ccccc2)C1 (stereo not drawn) | 11.69 & -11.66 | -8.222
CCN(CC)C(=O)C1CCC2(CCNCC2)CO1.Cl (stereo not drawn) | 16.34 | 9.975
[H][C@@]12CN(Cc3ccc(C(F)(F)F)cc3)C[C@]1([H])OCC(=O)N2CC(N)=O | -0.6372 & 2.201 | -3.689
Cl.Cn1nc(C2CCN(C(=O)CCN3CCOCC3)CC2)c2cccnc21 | -10.13 | 2.475
Cc1cccc(Cc2nc3c([nH]2)CCCNC3=O)c1 | 27.27 | -2.648
CC(=O)N1N=C(COc2ccc3c(c2)OCO3)OC1c1ccc(C)cc1 (stereo not drawn) | -1.95 | -2.563
[H][C@]12CC[C@]([H])(CN(c3nccc(C4CCCC4)n3)C1)N(CCOC)C2=O | -0.942 | 4.685 & -3.064
COCCCNC(=O)c1cc(-c2cnc(N(C)C)nc2)cn1CC1CC1.O=C(O)C(F)(F)F | 35.28 | 28.4
Cc1ccccc1CN(CCN(C)C)Cc1ncc[nH]1 | 16.1 & 1.113 | 23.68
Cc1nc(C2CCCN(C(=O)c3cccc4c3OCO4)C2)sc1C (stereo not drawn) | -12.33 | -1.625
Cc1nc(CN2CCc3nn(C)c(=O)cc3C2)oc1C | 26.1 | -13.68
Cc1noc([C@@H]2C[C@H](NC(=O)NC(C)C)CN2C)n1 | -35.38 & -3.953 | -19.74
COc1ccccc1CCC(=O)N1CCCC(OCc2cccnc2)C1 (stereo not drawn) | -21.92 | -34.13
CC(NCc1ccccc1Br)c1ccc2[nH]c(=O)[nH]c2c1 (stereo not drawn) | 6.339 | 4.96
COc1c(CNC2CCOc3ccccc32)c(C(C)C)nn1C (stereo not drawn) | 14.92 | 11.44
CN(Cc1cccnc1)C(CO)c1cccc(Br)c1 (stereo not drawn) | 0.3518 | 13.38
O=C1NCC2(CCCN(Cc3ccc(F)cc3)C2)Oc2ccccc21 (stereo not drawn) | 12.01 | 7.104
CC(C)n1c(=O)nc2n1C(=O)N(c1ccc(Br)cc1)C2 | 25.48 | 22.94
Cc1ccc(N2CCN(Cc3ccccc3)C3(CCNCC3)C2=O)cn1.O=C(O)C(F)(F)F | -33.28 & -3.165 | -18.73
COc1ccc(CNC2CCc3ncnn3C2)cc1OCC1CC1 (stereo not drawn) | 7.007 | 5.622
CCS(=O)(=O)Nc1cnn(Cc2cccc(C)c2)c1 | 14.94 | -21.2
O=C(NCC1COC2(CCOCC2)O1)c1csc(-c2cccc(Cl)c2)n1 (stereo not drawn) | 50.12 | 13.59
CN1CCN(Cc2noc(CC3CCc4ccccc43)n2)CC1 (stereo not drawn) | 3.056 & 7.721 | 16.96 & -1.113
Cc1ccccc1OCCC(=O)N1CCC(c2nncn2C)CC1 | 7.323 | -3.588
CN(C)C(=O)CS(=O)(=O)Cc1ccn(-c2cccc(F)c2)n1 | 1.598 & -19.01 | -7.848
OCCNc1nc(NCCc2ccccc2)nc2nccnc12 | 12.33 & 5.217 | -2.837
CCN1C(=O)C2(CCOCC2)c2cc(NC(=O)c3ccco3)ccc21 | 14.86 | 17.83
CCCc1nc(C)c(C(=O)NCCN2CCCCC2)s1 | -41.28 | -45.27
CC(C)N(C)[C@@H]1CCN(C(=O)c2ccc[nH]2)[C@H]1Cc1cnn(C)c1 | -16.03 | 2.083 & -5.306
CNc1oc(-c2ccc(S(=O)(=O)N(C)C)o2)nc1C#N | -27.83 | -13.32
O=C(O)C(F)(F)F.[H][C@@]12CN(Cc3sccc3C)C[C@H](C(=O)NCCOC)[C@]1([H])CCO2 | 4.364 | -11.86
Cc1ncsc1C(=O)NC1CCN(CC(=O)N(C)C(C)(C)C#N)CC1 | -9.072 | -28.82
COc1ccccc1CC(C)(C)NC(=O)CC(F)(F)F | 6.247 & -14.94 | 1.318
CC(C)(C)Nc1c(C2CCN(C(=O)C3CC3)CC2)nc2ccccn12 | -3.689 | -5.915 & 0.7017
CC(C)CN(Cc1nc2c(cnn2C)c(=O)[nH]1)CC(C)C | -11.34 | 6.037
Cn1ccc(C(=O)NCCOc2ccc3c(c2)CCC3)cc1=O | 23.94 | 18.02
CN1C(=O)C2(CCCN(C(=O)c3ccc(=O)n(C)n3)C2)c2ccccc21 (stereo not drawn) | -16.79 | -9.708
[H][C@]12CCC[C@@]1(COc1cccnc1)CN(C(=O)Cc1ccco1)C2 | -3.097 | -23.95
COc1ccc(COCC(O)CNC(=O)c2cccc(OC)c2)cc1 (stereo not drawn) | 10.34 | -0.1151
Cc1cc(C)n(C2CCCN(C(=O)Cc3ccc(C#N)cc3)C2)n1 (stereo not drawn) | -46.44 | -13.83
CNc1ccc(CC2CCCN(Cc3c[nH]cn3)C2)nn1 (stereo not drawn) | 7.124 | 5.857
Cc1ccc(CN2CCc3ncnc(-c4ccc(F)cc4)c3CC2)o1.O=C(O)C(F)(F)F | 9.506 | 4.221
Cn1cnc2c1C(COCc1cccnc1)N(Cc1ccccn1)CC2 (stereo not drawn) | 4.111 | 8.439
Cc1csc(N2CCCN(C(=O)CCN3CCCC3=O)CC2)n1 | -5.403 | -2.048
Cc1nc2c(C)cccc2cc1C(=O)N1CCC2(CCN(C)CC2)C1 | -30.16 | -3.641
c1ccc(-c2cc(CNCCN3CCCC3)c3nnnn3c2)cc1 | 49.34 | -11.65
c1ccc2oc(N3CCCC3Cn3cncn3)nc2c1 (stereo not drawn) | -1.706 & -4.675 | 4.643
CCc1cnc(NCC(C)Oc2cccnc2)nc1 (stereo not drawn) | 2.051 | 17.15 & -9.175
CNC(=O)c1c(C)cccc1NCc1noc(C2CC2)n1 | 3.366 & 2.123 | 14.97
Fc1cc(CNCCn2cccn2)ccc1-n1cncn1 | -26.65 & -11.18 | -3.511
Cc1ccc(C(=O)N2CCC3(CCN(Cc4ccccn4)C3=O)C2)cn1 (stereo not drawn) | -0.2476 | -11.6
Cc1nn(C)cc1C1CC(=O)Nc2c1cnn2C(C)(C)C (stereo not drawn) | 0.8783 | -5.949

Repeated from the top, 4 entries:

{"compound": "O=C(O)C(F)(F)F.O=C(O)C(F)(F)F.[H][C@@]12COC[C@]1(CN(C)C)CN(Cc1cc(C)on1)C2", "A": -5.291, "B": -13.48}
{"compound": "CC(C)Sc1ccc(N2CCN(Cc3ccccn3)CC2)nn1", "A": "9.647 & -4.518", "B": 6.365}
{"compound": "O=C(NCC(F)(F)F)C1CSCN1S(=O)(=O)c1ccc(F)cc1Cl", "stereo": "stereo not drawn", "A": 9.328, "B": -2.093}
{"compound": "COc1ccccc1C(=O)N1CCOCC1c1c(C)n[nH]c1C", "stereo": "stereo not drawn", "A": -22.93, "B": -13.81}